# The list shows a part of the results.
# Test system: T1, CTL2-GFP (C. trachomatis L2/434/Bu, GFP-expressing)
# T1 construct: L2/434/Bu, GFP-expressing
# Design: species or system HeLa; Intracellular C. trachomatis growth in HeLa cells, bulk GFP fluorescence relative to DMSO
# Conditions: bulk GFP, single well; 28.5 h, 10 µM; inhibitor
row,SMILES,% of control remaining [%]
1,COc1ccccc1NC(CC(=O)c1ccccc1)C(=O)O (centres unmarked) [CBK287190],134.538
2,O=C(NC1CCC1)c1cn2cc(-c3cccs3)n(CC3CC3)c(=O)c2n1 [CBK306863],154.739
3,O=C(Nc1ccc(C(F)(F)F)cc1)C1=C(O)CN(c2ccc(Cl)cc2)C1=O [CBK017603],102.737
4,O=C1CSC2c3ccccc3C(=O)N2c2ccccc21 (centres unmarked) [CBK113670],102.181
5,COc1ccccc1-c1ccc(C(=O)N(C)CCN(C)C)c(N(C)C)n1 [CBK106075],130.996
6,CC(C)(CO)Cn1c(=O)[nH]c2ncc(-c3ccco3)nc21 [CBK064721],126.244
7,CN(C)CCCNC(=O)C1CCN(c2nc3c(-c4ccccc4F)csc3c(=O)[nH]2)CC1 [CBK215438],128.602
8,O=C(NC1CCCOC1)c1cnn(-c2ccc(F)cc2)c1 (centres unmarked) [CBK283248],126.837
9,c1csc(-c2nccnc2OCC2COc3ccccc3O2)c1 (centres unmarked) [CBK107063],100.013
10,CC1c2ccsc2CCN1C(=O)CC(NC(N)=O)c1cccc(Br)c1 (centres unmarked) [CBK305635],110.358
11,Nc1cccc(-c2nc(NC(=O)Cc3ccccc3)cnc2-c2ccc(F)cc2)c1 [CBK037550],168.475
12,COC(=O)[C@H]1CN(C(=O)C2CC(=O)N(C)C2)C[C@@H]1c1ccc(F)cc1 (some centres unmarked) [CBK283521],108.341
13,Cc1nc(S)nc(O)c1Cc1ccc(C(=O)O)o1 [CBK266284],110.501
14,COc1ccc(NC(=O)C(C)n2nc(C(=O)O)c3ccccc3c2=O)cc1 (centres unmarked) [CBK295322],114.281
15,Cc1ccccc1C(=O)Nc1cccc(-c2nnc(SCC(=O)c3ccc(Cl)cc3)n2C)c1 [CBK264053],100
16,N#Cc1ccnc(N2CCN(CC(=O)NCC(F)(F)F)CC2)c1 [CBK305042],110.327
17,N#C/C(=C\c1ccc(-c2ccc(C(=O)O)cc2)o1)C(=O)NCc1ccco1 [CBK263322],100
18,Cc1cc(CC(=O)NCCCn2ccnc2C(C)C)on1 [CBK307270],134.781
19,CC(=O)Nc1cccc(C(=O)O)c1Cl [CBK038814],145.238
20,O=C(NC[C@H]1C[C@@H]2CC[N@]1C[C@@H]2CN1CCN(c2ncccn2)CC1)Nc1ccsc1 [CBK289117],104.306
21,CC(NC(=O)N1CCCN(Cc2ccccn2)CC1)c1cnn(C)c1 (centres unmarked) [CBK307537],99.281
22,O=C(CSCc1c(F)cccc1Cl)Nc1ccc(S(=O)(=O)N2CCCCCC2)cc1 [CBK268497],97.1677
23,CCCCN(C)c1nccnc1-c1cccc(O)c1 [CBK037652],103.862
24,CC1Cc2cc(C(=O)N3CCCCC3CCN3CCCC3)ccc2O1 (centres unmarked) [CBK282094],124.54
25,OCCN1CC2(CCN(Cc3ccc4ccccc4c3)CC2)c2ccccc21 [CBK131529],138.326
26,CSc1ccc(-c2cnc(N)c3ncccc23)cc1 [CBK067584],118.255

# Single values from the list:
# Value for CC1c2ccsc2CCN1C(=O)CC(NC(N)=O)c1cccc(Br)c1 (centres unmarked) [CBK305635] under % of control remaining [%]: 110.358
# Value for COc1ccccc1NC(CC(=O)c1ccccc1)C(=O)O (centres unmarked) [CBK287190] under % of control remaining [%]: 134.538

# Remaining list, next part

row,SMILES,% of control remaining [%]
1,Nc1ncccc1OCCOc1cccnc1N [CBK022067],136.672
2,O=C1CC(N2CCN(Cc3ccc4c(c3)OCO4)CC2)C(=O)N1c1ccc(Cl)cc1 (centres unmarked) [CBK074402],121.318
3,C[C@]12CN(CCc3ccccc3)C[C@H]1NC(=O)c1ccccc1C2=O [CBK284704],147.343
4,C[C@@H](Nc1cncc(-c2cccc(N)c2)n1)c1ccccc1 [CBK065273],180.694
5,O=C(NC1CC1)C1(Cc2ccccc2-c2ccncc2)CCOCC1 [CBK284785],108.312
6,COc1ccc2oc(C(=O)N(C)CC(C)OC)c(C)c2c1 (centres unmarked) [CBK282037],130.256
7,O=C(C1CCN(S(=O)(=O)c2ccccc2)CC1)N1CCN(Cc2ccc3c(c2)OCO3)CC1 [CBK265713],198.797
8,CC(=O)Nc1ccc(NCc2nc(CC(C)C)no2)c(C(F)(F)F)c1 [CBK305799],89.814
9,COc1ccc(NC2=N[C@H]3[C@@H](O)[C@H](O)C[C@H](C(=O)N(C)Cc4ccccc4)[C@H]3S2)cc1 [CBK288950],87.9999
10,CC(CN(C)C(=O)c1nc(=O)[nH][nH]1)Oc1ccc(Cl)c(Cl)c1 (centres unmarked) [CBK306471],100.974
11,COc1cccc(-n2c(C)nnc2C2(OC(C)=O)CCN(CCc3ccccc3)CC2)c1 [CBK016371],93.4497
12,O=C(CN1CCn2ccnc2C1)N(Cc1ccccc1F)C1CC1 [CBK303995],103.112
13,Cc1ccc(C(=O)N/C(=C\c2cccc([N+](=O)[O-])c2)c2n[nH]c(=S)[nH]2)cc1 [CBK263114],116.201
14,O=C(CCN1CCCC12CCc1[nH]c3ccccc3c1C2)c1ccc(F)cc1 (centres unmarked) [CBK084593],90.6548
15,CCOC(=O)CCC(=O)n1c2ccccc2c2ccccc21 [CBK001170],121.788
16,CC(=O)NCCN1CC[C@H]2CN(C(=O)COc3ccccc3)CC[C@H]2CC1=O [CBK288783],129.984
17,COc1cc(NC(=S)NCc2ccc(S(N)(=O)=O)cc2)cc(OC)c1 [CBK264935],119.805
18,COc1ccc(CC(=O)N2CCC(c3cc4ncccc4[nH]3)CC2)cc1 [CBK283386],124.637
19,CC(C)(C)c1cc(-n2c(-c3cccnc3)nc3ccccc32)cc(C(C)(C)C)c1O [CBK262907],83.2742
20,Cc1nc(NS(=O)(=O)c2ccccc2)sc1NC(=O)Nn1cnnc1 [CBK266699],167.783
21,CN(C)CCN(Cc1ccccc1)Cc1ccc(C(F)(F)F)cc1 [CBK261927],97.3034
22,O=S(=O)(c1ccc(-c2ccccc2)cc1)n1ccc2cc(N3CCN(Cc4ccccc4)CC3)ccc21 [CBK001388C],81.101
23,CC(=O)N1Cc2cc(C)ccc2OC2(CCCN(CC3CC3)C2)C1 (centres unmarked) [CBK285104],112.679
24,CCOc1ccc(CC(=O)N2CCCc3c(cnn3C)C2)cc1 [CBK285325],130.413
25,CCc1nc2ccc(C(=O)NC3CCN(Cc4ccccc4)CC3)cn2c1N(C)CC [CBK145488],95.6277
26,Cc1ccc(CN(C2CCN(C)CC2)S(=O)(=O)c2ccccc2F)cc1 [CBK160444T],144.43

row,SMILES,% of control remaining [%]
1,O=c1[nH]c(/C=C\c2cccc(OCCOc3ccccc3)c2)c([N+](=O)[O-])c(=O)[nH]1 [CBK266840],103.088
2,CN1CCN(CCOC(=O)NCc2ccnc3ccccc23)CC1 [CBK200148],96.5687
3,Cn1cc(C2CCCCCN2S(=O)(=O)c2ccc3[nH]c(=O)[nH]c(=O)c3c2)cn1 (centres unmarked) [CBK286406],118.406
4,O=C(NCc1ccncc1)c1cc(-c2ccc(Cl)cc2)on1 [CBK116559],117.331
5,Cc1ccc(NC(=O)N(Cc2ccc(-c3ccccc3)cc2)CC(C)(C)CN)c(C)c1 [CBK002428C],63.476
6,Cc1nn(C)c(N2CCNCC2)c1NC(=O)COc1ccccc1 [CBK050249T],52.1366
7,Cc1cc(CN2CCOCC2)oc1C(=O)O [CBK263239C],104.305
8,O=C(O)C1CCCCC1C(=O)NCCCN1CCCC1=O (centres unmarked) [CBK286914],101.523
9,Cc1ccccc1S(=O)(=O)Nc1cc(CN2C[C@H](C)NC[C@H]2C)c2occc2c1 [CBK107210T],112.997
10,CC(=O)NCC1CC(c2ccc(OC(C)=O)c(Cl)n2)=NO1 (centres unmarked) [CBK010396],100
11,COc1ccc(Sc2cccc(C(F)(F)F)n2)cc1OC [CBK093769],94.9932
12,CCOC(=O)CN1CCC(Oc2nccnc2OCCN2CCOCC2)CC1 [CBK082929],115.827
13,CCOC(=O)CNC(=S)N[C@H]1CC[C@@]2(c3cccnc3)CCN(Cc3ccccc3)[C@H]2C1 [CBK028453],92.97
14,Cc1ccc(C(=O)Nc2ccc3[nH]ccc3c2)cc1Cl [CBK159677],114.608
15,Nc1nc2n(n1)C1(CCCCC1)C1=C(CCCC1)N2 [CBK288219],136.556
16,CN(C)c1nc(N(C)C)n(C(=O)c2cccs2)n1 [CBK019805],122.702
17,NS(=O)(=O)c1ccc(C(=O)N2CCC3(CCN(C(=O)Cc4c[nH]c5ccccc45)C3)C2)cc1 (centres unmarked) [CBK131425],114.045
18,Cc1cc(C(=O)N2CCC(Cn3cncn3)(C3CCCCC3)CC2)n[nH]1 [CBK136786],122.803
19,c1ccc2sc([C@H]3CCNC3)nc2c1 [CBK289389],133.015
20,COc1ccc(N2CCN(c3cc(-c4ccc(CCC(=O)O)cc4)ncn3)CC2)cc1OC [CBK091030],78.9561
21,COc1cc(F)cc(OC2CCNCC2)c1NC(=O)/C=C/c1cccnc1 [CBK050344T],88.8167
22,O=C(c1cccnc1)N1CCN(Cc2ccc([N+](=O)[O-])cc2)CC1 [CBK263026],92.8116
23,O=C(Nc1ccc(-c2ccccc2)cc1)c1cccc(S(=O)(=O)NCC2CCCO2)c1 (centres unmarked) [CBK296994],123.968
24,CCOC(=O)c1sc(NS(=O)(=O)c2ccc(-c3ccccc3)cc2)nc1C [CBK003784],89.3217
25,O=[N+]([O-])c1cccc(-c2csc(N/N=C\c3cccc(O)c3)n2)c1 [CBK263418],124.721

# Fetched by compound from above:
row,SMILES,% of control remaining [%]
5,Cc1ccc(NC(=O)N(Cc2ccc(-c3ccccc3)cc2)CC(C)(C)CN)c(C)c1 [CBK002428C],63.476
3,Cn1cc(C2CCCCCN2S(=O)(=O)c2ccc3[nH]c(=O)[nH]c(=O)c3c2)cn1 (centres unmarked) [CBK286406],118.406
22,O=C(c1cccnc1)N1CCN(Cc2ccc([N+](=O)[O-])cc2)CC1 [CBK263026],92.8116

# Source: publication PMC12040169 (PLOS Biology, 2025)
